Test results published in PMC2944038 (Biochemical pharmacology, 2010).

Assays:
[1] = molecular target: T1, human apical sodium-dependent bile acid transporter (ASBT; SLC10A2) (Homo sapiens, UniProt Q12908); test: ASBT inhibition: taurocholate uptake into ASBT-MDCK cells; type: cell-based; conditions: with consideration of cytotoxicity
T1 sequence (Q12908 1-348): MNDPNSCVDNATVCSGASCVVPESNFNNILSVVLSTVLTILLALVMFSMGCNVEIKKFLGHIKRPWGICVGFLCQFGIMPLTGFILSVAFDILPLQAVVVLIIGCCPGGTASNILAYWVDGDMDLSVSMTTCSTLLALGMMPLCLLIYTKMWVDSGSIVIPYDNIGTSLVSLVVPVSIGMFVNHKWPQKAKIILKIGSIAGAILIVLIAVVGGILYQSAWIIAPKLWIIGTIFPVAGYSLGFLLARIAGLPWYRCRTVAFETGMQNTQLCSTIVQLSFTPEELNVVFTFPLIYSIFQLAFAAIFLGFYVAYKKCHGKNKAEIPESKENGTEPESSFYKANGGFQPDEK

in vitro = conditions: dog

In the case of COC(=O)C1=C(C)NC(C)=C(C(=O)OC)C1c1ccccc1[N+](=O)[O-] [Nifedipine, nifedipine], the “ASBT inhibitor” value [1] is reported as “only inhibited ASBT”, the “cytotoxicity in MDCK cells (in words)” value (MDCK cells) is reported as “cytotoxic to MDCK cells” and the viability (in vitro) is reported as 67.7%.
